Source: the supplement of paper PMC10849652
Some of the results follow.

The chains behind the UniProt entries cited, without tags or fusion partners. Where a name states a change or a piece, a line headed by the entry shows the natural chain unless it says otherwise.
UniProt Q9NVH1: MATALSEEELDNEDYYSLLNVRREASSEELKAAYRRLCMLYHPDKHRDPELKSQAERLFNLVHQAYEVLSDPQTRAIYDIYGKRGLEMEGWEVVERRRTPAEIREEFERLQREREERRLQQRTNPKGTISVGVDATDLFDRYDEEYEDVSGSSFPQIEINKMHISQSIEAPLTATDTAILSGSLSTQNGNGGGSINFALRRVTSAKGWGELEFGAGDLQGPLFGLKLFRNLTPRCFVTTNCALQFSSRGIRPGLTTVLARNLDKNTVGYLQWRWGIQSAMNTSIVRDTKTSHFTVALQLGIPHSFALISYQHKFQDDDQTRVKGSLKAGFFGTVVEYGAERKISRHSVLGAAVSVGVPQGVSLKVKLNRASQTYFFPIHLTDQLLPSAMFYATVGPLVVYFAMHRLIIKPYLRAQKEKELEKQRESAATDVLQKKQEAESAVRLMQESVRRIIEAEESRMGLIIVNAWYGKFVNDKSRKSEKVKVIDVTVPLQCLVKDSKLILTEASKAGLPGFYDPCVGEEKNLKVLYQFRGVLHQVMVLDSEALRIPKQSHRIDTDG
UniProt P55039: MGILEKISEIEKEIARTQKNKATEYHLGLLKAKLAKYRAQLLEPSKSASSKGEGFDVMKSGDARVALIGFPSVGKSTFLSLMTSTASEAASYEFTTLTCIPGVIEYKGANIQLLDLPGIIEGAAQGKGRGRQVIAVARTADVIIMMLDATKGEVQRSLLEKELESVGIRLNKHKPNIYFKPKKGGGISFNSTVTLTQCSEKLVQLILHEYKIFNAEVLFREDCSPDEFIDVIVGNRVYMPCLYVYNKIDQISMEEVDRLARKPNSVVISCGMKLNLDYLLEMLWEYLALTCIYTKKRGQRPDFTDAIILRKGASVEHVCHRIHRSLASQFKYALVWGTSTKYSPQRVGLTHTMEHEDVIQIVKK
UniProt Q15125: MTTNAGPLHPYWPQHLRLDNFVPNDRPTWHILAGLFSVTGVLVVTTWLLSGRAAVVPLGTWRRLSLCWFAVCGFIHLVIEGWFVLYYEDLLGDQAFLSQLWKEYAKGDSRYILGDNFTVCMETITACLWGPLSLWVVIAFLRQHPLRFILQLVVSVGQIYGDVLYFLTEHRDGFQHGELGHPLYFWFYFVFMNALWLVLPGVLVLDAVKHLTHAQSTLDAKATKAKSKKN
UniProt Q96DA6: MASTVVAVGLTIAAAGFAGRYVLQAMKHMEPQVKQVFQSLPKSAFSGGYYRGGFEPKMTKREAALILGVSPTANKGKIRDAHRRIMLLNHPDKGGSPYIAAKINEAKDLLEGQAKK
UniProt Q9BQC3: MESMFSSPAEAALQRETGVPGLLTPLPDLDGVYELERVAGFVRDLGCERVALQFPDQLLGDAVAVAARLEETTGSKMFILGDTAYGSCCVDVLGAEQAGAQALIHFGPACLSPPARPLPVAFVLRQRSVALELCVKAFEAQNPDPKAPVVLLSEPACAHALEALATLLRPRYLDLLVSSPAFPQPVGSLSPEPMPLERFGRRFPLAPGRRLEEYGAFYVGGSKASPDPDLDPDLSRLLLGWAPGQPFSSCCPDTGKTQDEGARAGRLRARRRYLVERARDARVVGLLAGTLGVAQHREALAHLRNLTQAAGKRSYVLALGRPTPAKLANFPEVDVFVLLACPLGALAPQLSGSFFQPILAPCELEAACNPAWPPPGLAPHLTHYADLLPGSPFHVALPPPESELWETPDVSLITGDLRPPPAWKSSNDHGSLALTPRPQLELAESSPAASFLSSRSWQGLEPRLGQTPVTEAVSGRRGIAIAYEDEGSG
UniProt Q99848: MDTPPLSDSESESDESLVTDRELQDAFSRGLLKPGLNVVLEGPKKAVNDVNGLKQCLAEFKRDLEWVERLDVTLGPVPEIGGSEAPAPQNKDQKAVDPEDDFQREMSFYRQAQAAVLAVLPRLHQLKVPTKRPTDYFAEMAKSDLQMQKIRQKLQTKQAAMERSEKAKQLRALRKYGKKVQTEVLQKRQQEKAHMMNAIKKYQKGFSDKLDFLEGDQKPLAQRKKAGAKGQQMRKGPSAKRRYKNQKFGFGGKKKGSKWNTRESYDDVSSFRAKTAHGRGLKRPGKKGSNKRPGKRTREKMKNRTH
UniProt Q8NF50: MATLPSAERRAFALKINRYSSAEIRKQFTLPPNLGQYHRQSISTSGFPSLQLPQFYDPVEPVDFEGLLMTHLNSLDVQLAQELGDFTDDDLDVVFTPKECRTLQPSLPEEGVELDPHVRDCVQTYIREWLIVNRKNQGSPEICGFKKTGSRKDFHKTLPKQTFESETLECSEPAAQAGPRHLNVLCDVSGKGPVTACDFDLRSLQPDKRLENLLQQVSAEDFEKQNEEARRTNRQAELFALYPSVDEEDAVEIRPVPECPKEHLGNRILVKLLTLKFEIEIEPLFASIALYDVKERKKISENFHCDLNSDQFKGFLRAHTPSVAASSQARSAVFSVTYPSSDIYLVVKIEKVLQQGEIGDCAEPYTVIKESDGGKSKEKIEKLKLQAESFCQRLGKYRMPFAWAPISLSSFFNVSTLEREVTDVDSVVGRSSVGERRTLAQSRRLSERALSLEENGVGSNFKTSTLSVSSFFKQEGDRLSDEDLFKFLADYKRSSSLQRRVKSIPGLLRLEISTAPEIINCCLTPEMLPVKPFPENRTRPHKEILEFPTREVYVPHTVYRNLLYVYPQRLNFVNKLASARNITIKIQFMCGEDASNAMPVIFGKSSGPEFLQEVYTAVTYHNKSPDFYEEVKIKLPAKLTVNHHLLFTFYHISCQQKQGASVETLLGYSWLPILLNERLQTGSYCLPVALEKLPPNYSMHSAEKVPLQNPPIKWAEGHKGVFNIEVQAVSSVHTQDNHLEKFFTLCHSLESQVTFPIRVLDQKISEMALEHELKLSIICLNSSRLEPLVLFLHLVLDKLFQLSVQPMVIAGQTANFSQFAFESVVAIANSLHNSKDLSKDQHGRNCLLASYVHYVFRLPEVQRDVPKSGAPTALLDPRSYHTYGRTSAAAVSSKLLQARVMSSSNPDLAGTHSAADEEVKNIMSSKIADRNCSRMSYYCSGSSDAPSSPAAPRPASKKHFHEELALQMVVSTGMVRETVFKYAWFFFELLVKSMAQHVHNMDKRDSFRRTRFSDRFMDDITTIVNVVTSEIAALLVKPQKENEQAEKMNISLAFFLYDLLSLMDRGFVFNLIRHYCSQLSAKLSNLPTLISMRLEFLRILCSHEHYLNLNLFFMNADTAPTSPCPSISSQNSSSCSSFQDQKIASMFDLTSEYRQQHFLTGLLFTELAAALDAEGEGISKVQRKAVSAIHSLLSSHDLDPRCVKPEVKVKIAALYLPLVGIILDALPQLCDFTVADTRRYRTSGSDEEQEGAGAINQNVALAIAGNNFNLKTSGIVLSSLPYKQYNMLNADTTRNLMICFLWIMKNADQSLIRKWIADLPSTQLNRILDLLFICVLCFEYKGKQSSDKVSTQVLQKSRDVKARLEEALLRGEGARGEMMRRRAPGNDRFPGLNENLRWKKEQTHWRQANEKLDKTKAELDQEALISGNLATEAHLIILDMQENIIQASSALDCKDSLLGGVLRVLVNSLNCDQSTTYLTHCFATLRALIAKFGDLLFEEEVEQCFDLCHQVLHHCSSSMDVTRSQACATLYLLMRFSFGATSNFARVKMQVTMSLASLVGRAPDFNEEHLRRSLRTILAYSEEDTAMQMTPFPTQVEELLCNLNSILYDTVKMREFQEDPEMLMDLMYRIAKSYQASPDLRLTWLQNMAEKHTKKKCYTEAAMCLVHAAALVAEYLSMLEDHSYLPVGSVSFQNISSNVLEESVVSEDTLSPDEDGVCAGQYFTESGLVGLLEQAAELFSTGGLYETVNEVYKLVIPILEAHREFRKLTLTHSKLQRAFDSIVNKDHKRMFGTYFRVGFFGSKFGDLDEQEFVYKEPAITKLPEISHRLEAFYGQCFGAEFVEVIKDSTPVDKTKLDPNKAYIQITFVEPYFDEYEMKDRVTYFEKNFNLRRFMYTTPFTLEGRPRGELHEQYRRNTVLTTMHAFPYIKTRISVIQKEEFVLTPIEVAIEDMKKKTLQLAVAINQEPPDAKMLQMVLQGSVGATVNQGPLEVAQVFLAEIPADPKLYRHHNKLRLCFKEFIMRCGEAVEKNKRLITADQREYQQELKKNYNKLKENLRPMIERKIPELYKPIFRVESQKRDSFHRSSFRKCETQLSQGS
UniProt P42126: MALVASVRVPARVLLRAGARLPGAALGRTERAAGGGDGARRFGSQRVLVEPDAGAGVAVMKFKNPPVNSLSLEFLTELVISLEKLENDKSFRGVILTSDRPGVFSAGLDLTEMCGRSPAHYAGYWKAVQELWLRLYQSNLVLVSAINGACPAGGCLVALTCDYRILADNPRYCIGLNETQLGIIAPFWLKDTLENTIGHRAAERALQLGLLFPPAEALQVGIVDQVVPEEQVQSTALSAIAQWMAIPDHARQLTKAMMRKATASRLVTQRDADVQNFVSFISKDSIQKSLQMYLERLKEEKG
UniProt Q5JSL3: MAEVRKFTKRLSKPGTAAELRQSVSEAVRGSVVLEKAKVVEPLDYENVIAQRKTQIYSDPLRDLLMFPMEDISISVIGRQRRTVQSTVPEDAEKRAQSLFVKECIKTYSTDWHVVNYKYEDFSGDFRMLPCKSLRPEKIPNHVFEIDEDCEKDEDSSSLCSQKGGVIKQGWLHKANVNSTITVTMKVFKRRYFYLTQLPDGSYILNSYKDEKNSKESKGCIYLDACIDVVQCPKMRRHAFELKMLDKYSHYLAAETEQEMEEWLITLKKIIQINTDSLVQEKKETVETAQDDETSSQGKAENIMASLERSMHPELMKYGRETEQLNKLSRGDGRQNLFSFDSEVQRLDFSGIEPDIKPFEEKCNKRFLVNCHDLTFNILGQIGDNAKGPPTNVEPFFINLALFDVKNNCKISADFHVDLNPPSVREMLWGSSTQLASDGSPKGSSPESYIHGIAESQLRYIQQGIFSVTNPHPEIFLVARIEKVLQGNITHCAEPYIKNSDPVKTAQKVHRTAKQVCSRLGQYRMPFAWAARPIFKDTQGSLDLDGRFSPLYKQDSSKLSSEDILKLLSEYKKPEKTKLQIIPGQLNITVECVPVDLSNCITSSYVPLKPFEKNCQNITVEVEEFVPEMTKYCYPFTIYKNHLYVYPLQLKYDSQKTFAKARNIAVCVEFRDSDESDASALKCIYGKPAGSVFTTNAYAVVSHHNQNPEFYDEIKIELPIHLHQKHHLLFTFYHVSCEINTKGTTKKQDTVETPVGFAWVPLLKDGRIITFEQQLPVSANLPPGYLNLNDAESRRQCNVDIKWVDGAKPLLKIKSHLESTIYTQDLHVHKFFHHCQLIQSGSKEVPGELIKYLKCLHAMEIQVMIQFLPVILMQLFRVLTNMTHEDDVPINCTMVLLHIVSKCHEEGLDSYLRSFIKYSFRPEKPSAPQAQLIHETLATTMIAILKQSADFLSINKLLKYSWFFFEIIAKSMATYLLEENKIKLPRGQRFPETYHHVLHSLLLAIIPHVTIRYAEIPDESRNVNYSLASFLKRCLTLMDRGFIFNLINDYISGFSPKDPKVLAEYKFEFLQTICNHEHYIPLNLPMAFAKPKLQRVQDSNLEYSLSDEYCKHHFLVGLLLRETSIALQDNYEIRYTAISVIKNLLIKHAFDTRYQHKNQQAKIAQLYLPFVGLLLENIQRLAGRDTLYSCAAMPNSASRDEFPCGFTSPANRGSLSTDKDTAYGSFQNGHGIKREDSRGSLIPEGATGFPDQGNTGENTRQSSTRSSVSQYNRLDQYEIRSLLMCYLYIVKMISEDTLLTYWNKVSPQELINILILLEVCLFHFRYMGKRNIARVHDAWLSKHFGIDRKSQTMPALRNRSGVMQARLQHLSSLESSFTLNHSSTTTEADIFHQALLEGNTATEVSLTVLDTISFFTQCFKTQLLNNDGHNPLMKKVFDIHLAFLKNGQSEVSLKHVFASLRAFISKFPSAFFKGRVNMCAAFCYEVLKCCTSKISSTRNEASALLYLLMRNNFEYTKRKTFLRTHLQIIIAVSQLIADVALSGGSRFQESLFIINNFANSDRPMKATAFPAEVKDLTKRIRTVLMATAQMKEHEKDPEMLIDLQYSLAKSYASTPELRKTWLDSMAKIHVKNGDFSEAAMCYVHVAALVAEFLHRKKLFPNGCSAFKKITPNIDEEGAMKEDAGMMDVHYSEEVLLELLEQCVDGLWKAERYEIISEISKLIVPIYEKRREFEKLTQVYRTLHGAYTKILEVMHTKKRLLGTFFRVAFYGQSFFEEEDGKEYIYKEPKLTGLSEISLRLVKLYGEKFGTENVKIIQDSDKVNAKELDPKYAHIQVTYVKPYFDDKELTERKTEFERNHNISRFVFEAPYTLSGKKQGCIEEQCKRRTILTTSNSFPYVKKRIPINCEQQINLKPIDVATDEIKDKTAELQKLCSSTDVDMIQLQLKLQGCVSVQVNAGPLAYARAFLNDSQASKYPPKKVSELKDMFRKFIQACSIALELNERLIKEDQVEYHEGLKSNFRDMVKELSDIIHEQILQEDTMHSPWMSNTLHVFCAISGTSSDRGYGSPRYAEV

What was measured:
Assay in all cases: log2 fold change, soluble protein after heating vs DMSO (PISA); higher = thermal stabilisation; K562 cells, 10 uM, 30 min; active = over 0.2 and 3.5 SD of the protein, either way, in both replicates (recomputed)
[1] = compound: C#Cc1cccc(Nc2ncnc3cc(OCCOC)c(OCCOC)cc23)c1 [erlotinib]
Method in brief: (§1)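 For each measurement, 10 μM compound was applied for 30 min to K562 cells at 2×10^6 cells/mL. Aliquots were heated for 3 min across 48°C-58°C, pooled, and extracted in PBS with 0.5% NP-40 at 4°C; the supernatant after 21,000xg for 90 min was soluble protein. This was quantified by TMTpro 16plex LC-MS/MS with channel sums equalised, and thermal stability was reported relative to control samples from duplicates, on a log2 fold-change scale.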

[2] = compound: C/C(=N\NC(=O)C1=CC(=CC=C1)S(=O)(=O)N2CCOCC2)/C3=C(C=CC(=C3)Cl)O
Method in brief: as §1

[3] = compound: C1=CC(=C(C=C1Cl)C2=NC3=NC=CN=C3C(=N2)NC4=CC=NC=C4)F
Method in brief: as §1

[4] = compound: C1=CC(=CC=C1C2=NC3=C(N2)C=C(C=C3)C(=O)N)OC4=CC=C(C=C4)Cl
Method in brief: as §1

[5] = compound: C1=CC2=C(C=CC(=C2)/C=C\3/C(=O)NC(=NCC4=CC=CS4)S3)N=C1
Method in brief: as §1

[6] = compound: C1=CC2=NC=CN=C2C=C1/C=C/3\C(=O)NC(=O)S3
Method in brief: as §1

[7] = compound: C1=CC=C(C=C1)C2=NC(=C(N2)C3=CC=NC=C3)C4=CC(=C(C=C4)Cl)O
Method in brief: as §1

[8] = compound: C1=CC=C2C(=C1)C3=NNC4=CC=CC(=C43)C2=O
Method in brief: as §1

[9] = compound: C1CCN(C1)C(=O)NC2=CC=CC(=C2)NC3=NC=C(C(=N3)NCCC4=CN=CN4)Br
Method in brief: as §1

[10] = compound: C1CN(CCC1(CC2=CC=C(C=C2)Cl)N)C3=NC=NC4=C3C=CN4
Method in brief: as §1

Measured: log2 fold change

DNAJC11 (UniProt Q9NVH1)
inactive: [1] -0.03 | [2] 0.011 | [3] 0.045 | [4] -0.001 | [5] 0.007 | [6] 0.015 | [7] -0.033 | [8] 0.018 | [9] -0.026 | [10] 0.009

DNMT1 isoform 2 (UniProt P26358)
inactive: [1] -0.007 | [2] 0.038 | [3] 0.009 | [4] -0.011 | [5] 0.009 | [6] 0.014 | [7] 0.038 | [8] 0 | [9] -0.041 | [10] -0.026

DNPH1 (UniProt O43598)
inactive: [1] -0.036 | [2] 0.073 | [3] 0.034 | [4] 0.022 | [5] -0.044 | [6] -0.012 | [7] 0.05 | [8] -0.058 | [9] -0.072 | [10] 0.019

DNAJB12 (UniProt Q9NXW2)
inactive: [1] -0.039 | [2] -0.001 | [3] 0.003 | [4] 0.102 | [5] 0.004 | [6] 0.032 | [7] 0.006 | [8] -0.064 | [9] 0.044 | [10] 0.033

DRG2 (UniProt P55039)
inactive: [1] -0.005 | [2] 0.041 | [3] -0.004 | [4] 0.011 | [5] 0.055 | [6] 0.035 | [7] 0.003 | [8] 0.001 | [9] -0.012 | [10] 0.008

DNAJB6 (UniProt O75190)
inactive: [1] 0.011 | [2] 0.009 | [3] -0.011 | [4] -0.006 | [5] 0.088 | [6] 0.025 | [7] -0.081 | [8] 0.007 | [9] 0.026 | [10] 0.073

DPP9 isoform 2 (UniProt Q86TI2)
inactive: [1] 0.029 | [2] 0.085 | [3] 0.008 | [4] 0.017 | [5] 0.094 | [6] -0.025 | [7] -0.006 | [8] 0.033 | [9] 0.014 | [10] 0.068

DXO (UniProt O77932)
inactive: [1] -0.106 | [2] 0.082 | [3] 0.001 | [4] 0.063 | [5] -0.13 | [6] 0.096 | [7] 0.097 | [8] 0.035 | [9] -0.034 | [10] 0.123

DYNLRB1 (UniProt Q9NP97)
inactive: [1] -0.011 | [2] 0.008 | [3] 0.086 | [4] -0.032 | [5] 0.051 | [6] 0.084 | [7] 0.028 | [8] 0.052 | [9] -0.029 | [10] -0.016

DPY30 (UniProt Q9C005)
inactive: [1] -0.455 | [2] 0.136 | [3] 0.512 | [4] 0.37 | [5] -0.023 | [6] 0.043 | [7] 0.029 | [8] -0.012 | [9] 0 | [10] -0.1

EBP (UniProt Q15125)
inactive: [1] 0.006 | [2] -0.049 | [3] -0.057 | [4] 0.026 | [5] 0.022 | [6] 0.016 | [7] 0.057 | [8] -0.195 | [9] 0.041 | [10] 0.019

DNAJC19 (UniProt Q96DA6)
inactive: [1] -0.009 | [2] 0.014 | [3] 0.055 | [4] 0.001 | [5] -0.005 | [6] 0.04 | [7] 0.052 | [8] -0.022 | [9] -0.012 | [10] 0.016

DPH2 (UniProt Q9BQC3)
inactive: [1] -0.046 | [2] 0.018 | [3] 0.159 | [4] 0.002 | [5] 0.047 | [6] 0.005 | [7] -0.112 | [8] -0.038 | [9] -0.041 | [10] -0.006

EBNA1BP2 (UniProt Q99848)
inactive: [1] -0.041 | [2] -0.149 | [3] -0.466 | [4] 0.034 | [5] 0.042 | [6] 0.052 | [7] -0.047 | [8] -0.134 | [9] 0.048 | [10] -0.414

DOCK8 (UniProt Q8NF50)
inactive: [1] 0.259 | [2] 0.001 | [3] 0.182 | [4] 0.04 | [5] -0.092 | [6] -0.021 | [7] -0.046 | [8] 0.059 | [9] -0.076 | [10] -0.071

DYNLL2 (UniProt Q96FJ2)
inactive: [1] 0.019 | [2] 0.046 | [3] 0.05 | [4] -0.023 | [5] 0.029 | [6] -0.034 | [7] 0.031 | [8] -0.033 | [9] 0.01 | [10] -0.044

ECI1 (UniProt P42126)
inactive: [1] 0 | [2] 0.076 | [3] 0.032 | [4] 0.011 | [5] 0.104 | [6] 0.033 | [7] -0.053 | [8] 0.015 | [9] 0.005 | [10] -0.013

DNPEP (UniProt Q9ULA0)
inactive: [1] 0.002 | [2] -0.002 | [3] 0.019 | [4] 0.015 | [5] -0.014 | [6] 0.012 | [7] 0.003 | [8] -0.023 | [9] -0.039 | [10] 0.039

DOCK11 (UniProt Q5JSL3)
inactive: [1] 0.012 | [2] 0.079 | [3] -0.026 | [4] -0.017 | [5] 0.034 | [6] 0.022 | [7] -0.039 | [8] -0.039 | [9] -0.012 | [10] -0.111

EBAG9 isoform 2 (UniProt O00559)
inactive: [1] 0.02 | [2] 0.079 | [3] 0.067 | [4] 0 | [5] -0.087 | [6] -0.022 | [7] 0.062 | [8] 0.046 | [9] 0.034 | [10] 0

DPP3 (UniProt Q9NY33)
inactive: [1] 0.031 | [2] 0.04 | [3] 0.078 | [4] 0.036 | [5] 0.008 | [6] 0.004 | [7] 0.033 | [8] 0.018 | [9] 0 | [10] 0.024

DUS3L (UniProt Q96G46)
inactive: [1] -0.073 | [2] 0.025 | [3] 0.118 | [4] 0.059 | [5] 0.016 | [6] 0.037 | [7] 0.042 | [8] -0.001 | [9] -0.043 | [10] 0.078

DNTTIP2 (UniProt Q5QJE6)
inactive: [1] -0.111 | [2] -0.186 | [3] -0.242 | [4] 0.038 | [5] 0.005 | [6] -0.043 | [7] -0.069 | [8] -0.269 | [9] -0.004 | [10] -0.111

DOCK1 (UniProt Q14185)
inactive: [1] 0.179 | [2] -0.093 | [3] -0.13 | [4] -0.143 | [5] 0.241 | [6] 0.034 | [7] -0.325 | [8] -0.07

DPM1 (UniProt O60762)
inactive: [1] -0.005 | [2] 0.046 | [3] 0.015 | [4] 0.043 | [5] 0.014 | [6] -0.012 | [7] -0.033 | [8] -0.014 | [9] -0.002 | [10] 0.004

8 consecutive entries out of the list so far, quoted:
DYNLL2 (UniProt Q96FJ2)
inactive: [1] 0.019 | [2] 0.046 | [3] 0.05 | [4] -0.023 | [5] 0.029 | [6] -0.034 | [7] 0.031 | [8] -0.033 | [9] 0.01 | [10] -0.044

ECI1 (UniProt P42126)
inactive: [1] 0 | [2] 0.076 | [3] 0.032 | [4] 0.011 | [5] 0.104 | [6] 0.033 | [7] -0.053 | [8] 0.015 | [9] 0.005 | [10] -0.013

DNPEP (UniProt Q9ULA0)
inactive: [1] 0.002 | [2] -0.002 | [3] 0.019 | [4] 0.015 | [5] -0.014 | [6] 0.012 | [7] 0.003 | [8] -0.023 | [9] -0.039 | [10] 0.039

DOCK11 (UniProt Q5JSL3)
inactive: [1] 0.012 | [2] 0.079 | [3] -0.026 | [4] -0.017 | [5] 0.034 | [6] 0.022 | [7] -0.039 | [8] -0.039 | [9] -0.012 | [10] -0.111

EBAG9 isoform 2 (UniProt O00559)
inactive: [1] 0.02 | [2] 0.079 | [3] 0.067 | [4] 0 | [5] -0.087 | [6] -0.022 | [7] 0.062 | [8] 0.046 | [9] 0.034 | [10] 0

DPP3 (UniProt Q9NY33)
inactive: [1] 0.031 | [2] 0.04 | [3] 0.078 | [4] 0.036 | [5] 0.008 | [6] 0.004 | [7] 0.033 | [8] 0.018 | [9] 0 | [10] 0.024

DUS3L (UniProt Q96G46)
inactive: [1] -0.073 | [2] 0.025 | [3] 0.118 | [4] 0.059 | [5] 0.016 | [6] 0.037 | [7] 0.042 | [8] -0.001 | [9] -0.043 | [10] 0.078

DNTTIP2 (UniProt Q5QJE6)
inactive: [1] -0.111 | [2] -0.186 | [3] -0.242 | [4] 0.038 | [5] 0.005 | [6] -0.043 | [7] -0.069 | [8] -0.269 | [9] -0.004 | [10] -0.111

Additional results.

DNAJC3 (UniProt Q13217)
inactive: [1] -0.016 | [2] -0.001 | [3] -0.012 | [4] 0.014 | [5] -0.085 | [6] 0.023 | [7] -0.008 | [8] 0.032 | [9] 0.022 | [10] -0.039

DTNBP1 (UniProt Q96EV8)
inactive: [1] 0.016 | [2] 0.028 | [3] 0.038 | [4] 0.03 | [5] 0.028 | [6] -0.038 | [7] -0.043 | [8] -0.043 | [9] -0.009 | [10] 0.002

EDARADD (UniProt Q8WWZ3)
inactive: [1] 0.035 | [2] -0.028 | [3] 0.033 | [4] 0.06 | [5] 0.036 | [6] 0.048 | [7] -0.051 | [8] -0.029 | [9] 0.014 | [10] 0.025
